Measured values reported in PMC4364779, “IMD-4690, a Novel Specific Inhibitor for Plasminogen Activator Inhibitor-1, Reduces Allergic Airway Remodeling in a Mouse Model of Chronic Asthma via Regulating Angiogenesis and Remodeling-Related Mediators” (PLoS ONE, 2015).
These are yes or no findings as the source states them, for the method shown. Some binding calls cover weakened binding; strength is not graded here.

Chains of the proteins cited; added tags and fusions are not shown. Residues count along the entry.
UniProt P05121, residues 24-402: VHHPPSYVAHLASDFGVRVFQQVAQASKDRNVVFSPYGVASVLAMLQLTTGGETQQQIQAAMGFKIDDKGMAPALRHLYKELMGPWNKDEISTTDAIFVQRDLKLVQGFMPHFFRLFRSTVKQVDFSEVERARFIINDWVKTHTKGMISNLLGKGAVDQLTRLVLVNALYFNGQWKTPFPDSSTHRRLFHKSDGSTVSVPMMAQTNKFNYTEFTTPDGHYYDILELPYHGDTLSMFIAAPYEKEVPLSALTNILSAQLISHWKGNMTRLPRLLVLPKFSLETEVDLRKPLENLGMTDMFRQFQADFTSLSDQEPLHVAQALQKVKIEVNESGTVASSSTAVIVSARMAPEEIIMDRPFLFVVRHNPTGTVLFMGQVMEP
UniProt P00750, residues 36-562: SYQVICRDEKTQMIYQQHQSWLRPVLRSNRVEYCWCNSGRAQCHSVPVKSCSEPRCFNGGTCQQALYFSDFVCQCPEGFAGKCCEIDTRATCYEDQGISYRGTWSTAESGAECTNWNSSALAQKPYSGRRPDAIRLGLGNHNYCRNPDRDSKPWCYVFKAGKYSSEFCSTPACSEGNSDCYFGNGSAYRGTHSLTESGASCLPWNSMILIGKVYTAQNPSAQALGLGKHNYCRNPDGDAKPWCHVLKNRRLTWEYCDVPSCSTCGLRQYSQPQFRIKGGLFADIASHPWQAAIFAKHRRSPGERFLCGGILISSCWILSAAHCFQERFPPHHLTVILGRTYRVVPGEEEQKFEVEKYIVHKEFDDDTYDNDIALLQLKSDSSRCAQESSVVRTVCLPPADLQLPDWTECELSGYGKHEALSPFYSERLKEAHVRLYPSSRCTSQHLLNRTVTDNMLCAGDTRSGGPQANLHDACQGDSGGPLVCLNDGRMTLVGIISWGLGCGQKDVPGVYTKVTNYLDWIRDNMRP

Biological target: plasminogen activator inhibitor-1 (human) (UniProt P05121)
Assay: SDS-PAGE of the tPA/PAI-1 complex with silver staining; recombinant PAI-1 mixed with IMD-4690 in PBS at 37°C for 5 min, then tPA added, 37°C for 5 min; 10% SDS-PAGE, silver staining; bands of the tPA/PAI-1 complex quantified by densitometry; both purified

tissue-type plasminogen activator (from UniProt P00750 36-562) (enzyme)
binding: binds
